Results are given in words; binding and its absence hold for the method and conditions named. For part of these data: Binding seen in cells or lysates may run through a third protein. Some entries that bind do so weakly or less than the wild type. Each block holds one binder with its values, some of them ahead of it.
What was measured:
[1] = target: VC155-Hoxa1 (mouse) (UniProt P09022); assay: split reporter; BiFC in transfected MCF10A cells: VN173-hORF with VC155-Hoxa1; fixed 24 h after transfection, confocal microscopy
[2] = target: Hoxa1 (mouse) (UniProt P09022); assay: two-hybrid; DB-Hoxa1 (Gal4 DNA binding domain) in MATα Y8930 mated with the AD-hORF library (human ORFeome v3.1) in MATa Y8800; 30°C; selection on Sc-L-T-H + 1 mM 3AT, retest on Sc-L-T-H, Sc-L-T-A and Sc-L-T-H-A+3AT

Protein sequences, listed by entry. Tags and fused reporters are not part of them.
UniProt P09022: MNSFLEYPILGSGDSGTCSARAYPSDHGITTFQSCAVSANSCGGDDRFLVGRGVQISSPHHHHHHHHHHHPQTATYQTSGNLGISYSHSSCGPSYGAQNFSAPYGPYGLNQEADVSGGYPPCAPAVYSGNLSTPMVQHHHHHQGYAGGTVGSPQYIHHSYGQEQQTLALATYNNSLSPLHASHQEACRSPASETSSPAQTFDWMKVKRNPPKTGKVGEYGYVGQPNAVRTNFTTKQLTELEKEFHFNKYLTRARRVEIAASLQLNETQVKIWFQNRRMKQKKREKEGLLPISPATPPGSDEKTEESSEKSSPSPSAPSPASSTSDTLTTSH

B3: sprouty homolog 2 (protein, UniProt O43597 1-315)
chain: MEARAQSGNGSQPLLQTPRDGGRQRGEPDPRDALTQQVHVLSLDQIRAIRNTNEYTEGPTVVPRPGLKPAPRPSTQHKHERLHGLPEHRQPPRLQHSQVHSSARAPLSRSISTVSSGSRSSTRTSTSSSSSEQRLLGSSFSSGPVADGIIRVQPKSELKPGELKPLSKEDLGLHAYRCEDCGKCKCKECTYPRPLPSDWICDKQCLCSAQNVIDYGTCVCCVKGLFYHCSNDDEDNCADNPCSCSQSHCCTRWSAMGVMSLFLPCLWCYLPAKGCLKLCQGCYDRVNRPGCRCKNSNTVCCKVPTVPPRNFEKPT
- binding [2]: binds

B5: RAB33A (member RAS oncogene family) (protein, UniProt Q14088 1-237)
chain: MAQPILGHGSLQPASAAGLASLELDSSLDQYVQIRIFKIIVIGDSNVGKTCLTFRFCGGTFPDKTEATIGVDFREKTVEIEGEKIKVQVWDTAGQERFRKSMVEHYYRNVHAVVFVYDVTKMTSFTNLKMWIQECNGHAVPPLVPKVLVGNKCDLREQIQVPSNLALKFADAHNMLLFETSAKDPKESQNVESIFMCLACRLKAQKSLLYRDAERQQGKVQKLEFPQEANSKTSCPC
- binding [1]: binds

B6: heat shock transcription factor, Y-linked 1 (protein, UniProt Q96LI6 1-401)
chain: MAHVSSETQDVSPKDELTASEASTRSPLCEHTFPGDSDLRSMIEEHAFQVLSQGSLLESPSYTVCVSEPDKDDDFLSLNFPRKLWKIVESDQFKSISWDENGTCIVINEELFKKEILETKAPYRIFQTDAIKSFVRQLNLYGFSKIQQNFQRSAFLATFLSEEKESSVLSKLKFYYNPNFKRGYPQLLVRVKRRIGVKNASPISTLFNEDFNKKHFRAGANMENHNSALAAEASEESLFSASKNLNMPLTRESSVRQIIANSSVPIRSGFPPPSPSTSVGPSEQIATDQHAILNQLTTIHMHSHSTYMQARGHIVNFITTTTSQYHIISPLQNGYFGLTVEPSAVPTRYPLVSVNEAPYRNMLPAGNPWLQMPTIADRSAAPHSRLALQPSPLDKYHPNYN
- binding [2]: binds

B7: keratin associated protein 26-1 (protein, UniProt Q6PEX3 1-210)
chain: MSCPNYCSGNSNSGSLRTSRHIPLTSIDLCPTSVSCGDVLYLPTSSQDHTWVTDNCQETCGEPTSCQPVHCETGNLETSCGSSTAYYVPRPCQGSSFLPASFFSSSCLPVSCRPQRYVSSGCRPLRPLLNSYQPIGDCVPNAYRPQFCLSKSCQPQNLLTSGCQPSSCLAYRPQSLHVVSSSLRPLGPLFSGCQPLTHVFSTCRPSCSGL
- binding [1]: binds
- binding [2]: binds

B8: keratin 81 (protein, UniProt Q14533 1-505)
chain: MTCGSGFGGRAFSCISACGPRPGRCCITAAPYRGISCYRGLTGGFGSHSVCGGFRAGSCGRSFGYRSGGVCGPSPPCITTVSVNESLLTPLNLEIDPNAQCVKQEEKEQIKSLNSRFAAFIDKVRFLEQQNKLLETKLQFYQNRECCQSNLEPLFEGYIETLRREAECVEADSGRLASELNHVQEVLEGYKKKYEEEVSLRATAENEFVALKKDVDCAYLRKSDLEANVEALIQEIDFLRRLYEEEILILQSHISDTSVVVKLDNSRDLNMDCIIAEIKAQYDDIVTRSRAEAESWYRSKCEEMKATVIRHGETLRRTKEEINELNRMIQRLTAEVENAKCQNSKLEAAVAQSEQQGEAALSDARCKLAELEGALQKAKQDMACLIREYQEVMNSKLGLDIEIATYRRLLEGEEQRLCEGIGAVNVCVSSSRGGVVCGDLCVSGSRPVTGSVCSAPCNGNVAVSTGLCAPCGQLNTTCGGGSCGVGSCGISSLGVGSCGSSCRKC
- binding [1]: binds

B9: family with sequence similarity 108, member A1 (protein, UniProt Q96GS6 1-310)
chain: MNGLSLSELCCLFCCPPCPGRIAAKLAFLPPEATYSLVPEPEPGPGGAGAAPLGTLRASSGAPGRWKLHLTERADFQYSQRELDTIEVFPTKSARGNRVSCMYVRCVPGARYTVLFSHGNAVDLGQMSSFYIGLGSRLHCNIFSYDYSGYGASSGRPSERNLYADIDAAWQALRTRYGISPDSIILYGQSIGTVPTVDLASRYECAAVVLHSPLTSGMRVAFPDTKKTYCFDAFPNIEKVSKITSPVLIIHGTEDEVIDFSHGLALYERCPKAVEPLWVEGAGHNDIELYSQYLERLRRFISQELPSQRA
- binding [1]: binds

Now from value to binder:

- binding [1]: binds
B1: keratin associated protein 5-9 (protein, UniProt P26371 1-169)
chain: MGCCGCSGGCGSSCGGCDSSCGSCGSGCRGCGPSCCAPVYCCKPVCCCVPACSCSSCGKRGCGSCGGSKGGCGSCGCSQCSCCKPCCCSSGCGSSCCQCSCCKPYCSQCSCCKPCCSSSGRGSSCCQSSCCKPCCSSSGCGSSCCQSSCCKPCCSQSRCCVPVCYQCKI

- binding [2]: binds
B2: G protein regulated inducer of neurite outgrowth 2 (protein, UniProt O60269 1-458)
chain: MSSSRPEPGPWAPLSPRLQPLSQSSSSLLGEGREQRPELRKTASSTVWQAQLGEASTRPQAPEEEGNPPESMKPARASGPKARPSAGGHWWSSTVGNVSTMGGSDLCRLRAPSAAAMQRSHSDLVRSTQMRGHSGARKASLSCSALGSSPVHRAQLQPGGTSGQGGQAPAGLERDLAPEDETSNSAWMLGASQLSVPPLDLGDTTAHSSSAQAEPKAAEQLATTTCHALPPAALLCGMREVRAGGCCHALPATGILAFPKLVASVSESGLQAQHGVKIHCRLSGGLPGHSHCCAHLWGPAGLVPEPGSRTKDVWTMTSANDLAPAEASPLSAQDAGVQAAPVAACKAVATSPSLEAPAALHVFPEVTLGSSLEEVPSPVRDVRWDAEGMTWEVYGAAVDLEVLGVAIQKHLEMQFEQLQRAPASEDSLSVEGRRGPLRAVMQSLRRPSCCGCSGAAPE

- binding [1]: binds
B4: MyoD family inhibitor (protein, UniProt Q99750 1-246)
chain: MYQVSGQRPSGCDAPYGAPSAAPGPAQTLSLLPGLEVVTGSTHPAEAAPEEGSLEEAATPMPQGNGPGIPQGLDSTDLDVPTEAVTCQPQGNPLGCTPLLPNDSGHPSELGGTRRAGNGALGGPKAHRKLQTHPSLASQGSKKSKSSSKSTTSQIPLQAQEDCCVHCILSCLFCEFLTLCNIVLDCATCGSCSSEDSCLCCCCCGSGECADCDLPCDLDCGILDACCESADCLEICMECCGLCFSS

- binding [2]: binds
B10: regulator of G-protein signaling 17 (protein, UniProt Q9UGC6 1-210)
chain: MRKRQQSQNEGTPAVSQAPGNQRPNNTCCFCWCCCCSCSCLTVRNEERGENAGRPTHTTKMESIQVLEECQNPTAEEVLSWSQNFDKMMKAPAGRNLFREFLRTEYSEENLLFWLACEDLKKEQNKKVIEEKARMIYEDYISILSPKEVSLDSRVREVINRNLLDPNPHMYEDAQLQIYTLMHRDSFPRFLNSQIYKSFVESTAGSSSES

- binding [1]: binds
B11: zinc finger, ZZ-type containing 3 (protein, UniProt Q8IYH5 1-903)
chain: MAASRSTRVTRSTVGLNGLDESFCGRTLRNRSIAHPEEISSNSQVRSRSPKKRPEPVPIQKGNNNGRTTDLKQQSTRESWVSPRKRGLSSSEKDNIERQAIENCERRQTEPVSPVLKRIKRCLRSEAPNSSEEDSPIKSDKESVEQRSTVVDNDADFQGTKRACRCLILDDCEKREIKKVNVSEEGPLNSAVVEEITGYLAVNGVDDSDSAVINCDDCQPDGNTKQNSIGSYVLQEKSVAENGDTDTQTSMFLDSRKEDSYIDHKVPCTDSQVQVKLEDHKIVTACLPVEHVNQLTTEPATGPFSETQSSLRDSEEEVDVVGDSSASKEQCKENTNNELDTSLESMPASGEPEPSPVLDCVSAQMMSLSEPQEHRYTLRTSPRRAAPTRGSPTKNSSPYRENGQFEENNLSPNETNATVSDNVSQSPTNPGEISQNEKGICCDSQNNGSEGVSKPPSEARLNIGHLPSAKESASQHITEEEDDDPDVYYFESDHVALKHNKDYQRLLQTIAVLEAQRSQAVQDLESLGRHQREALKNPIGFVEKLQKKADIGLPYPQRVVQLPEIVWDQYTHSLGNFEREFKNRKRHTRRVKLVFDKVGLPARPKSPLDPKKDGESLSYSMLPLSDGPEGSSSRPQMIRGRLCDDTKPETFNQLWTVEEQKKLEQLLIKYPPEEVESRRWQKIADELGNRTAKQVASRVQKYFIKLTKAGIPVPGRTPNLYIYSKKSSTSRRQHPLNKHLFKPSTFMTSHEPPVYMDEDDDRSCFHSHMNTAVEDASDDESIPIMYRNLPEYKELLQFKKLKKQKLQQMQAESGFVQHVGFKCDNCGIEPIQGVRWHCQDCPPEMSLDFCDSCSDCLHETDIHKEDHQLEPIYRSETFLDRDYCVSQGTSYNYLDPNYFPANR
